Experimental data as given in PubChem BioAssay AID1671190 (National Center for Advancing Translational Sciences (NCATS), 2021).
The whole screen tested about 580,000 compounds, of which about 6,100 (1.1%) were called active. Inconclusive means that the source gave no clear call. Such entries were picked first, then a sample of the others. Calls come from the whole dose curve; as a rule, active = well fitted inhibition curve with a large enough effect; inconclusive = small, poorly fitted or top-dose-only effect, or another doubt; inactive = no such curve, though single readings can be large or run the other way. Potencies beside an inconclusive call are fits to weak or partial responses and may not hold up.

Protein sequences, listed by entry. Tags and fused reporters are not part of them. Lines headed by an entry give the natural chain unless they say otherwise; changes in a name come on top.
UniProt P18054: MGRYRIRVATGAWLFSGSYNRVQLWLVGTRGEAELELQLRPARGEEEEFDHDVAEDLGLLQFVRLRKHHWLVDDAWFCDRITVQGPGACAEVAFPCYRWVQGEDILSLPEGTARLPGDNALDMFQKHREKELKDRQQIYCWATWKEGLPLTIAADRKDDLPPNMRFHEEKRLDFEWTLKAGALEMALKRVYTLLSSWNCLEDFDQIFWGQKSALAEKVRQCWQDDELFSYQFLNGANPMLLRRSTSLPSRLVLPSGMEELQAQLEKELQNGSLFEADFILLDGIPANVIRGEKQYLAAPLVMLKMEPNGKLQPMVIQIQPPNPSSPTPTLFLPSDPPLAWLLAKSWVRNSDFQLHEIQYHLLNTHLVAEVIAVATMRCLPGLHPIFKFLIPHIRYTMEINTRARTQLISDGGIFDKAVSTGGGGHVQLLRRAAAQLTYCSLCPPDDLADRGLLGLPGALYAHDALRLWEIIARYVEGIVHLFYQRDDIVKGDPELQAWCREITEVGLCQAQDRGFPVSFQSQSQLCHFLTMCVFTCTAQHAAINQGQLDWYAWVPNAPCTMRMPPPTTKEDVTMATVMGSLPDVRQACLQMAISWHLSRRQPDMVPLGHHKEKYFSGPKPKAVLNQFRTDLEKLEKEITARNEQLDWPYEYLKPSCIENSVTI

The compounds below were run against Polyunsaturated fatty acid lipoxygenase ALOX12 (Homo sapiens) (UniProt P18054) (assay: Primary qHTS assay for inhibitors of human arachidonate 12S-lipoxygenase (ALOX12): Round 2). Conditions: purified 12hLO, xylenol orange hydroperoxide absorbance; activity change, negative = inhibition: at 108 µM (top of the series) unless noted.
Outline: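 Hydroperoxide product was detected by ferrous iron/xylenol orange as the 573 to 405 nm absorbance ratio. Arachidonic acid at 40 uM (final) was turned over for 30 min at room temperature by 150 nM human 12hLO, pH 7.0 Hepes buffer, after 15 min compound preincubation.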
% is set by controls: 0 for no effect and ±100 for the full control effect; potency is the fitted concentration of half-maximal effect.

**Q.** For `CCCS(=O)(=O)NC(=O)C1(C)CCCN(C(=O)c2ccccc2Br)C1` (stereo not drawn), which Potency is on record?
**A.** inconclusive: 35.5 µM [inhibitor, partial curve]

**Q.** Which Potency does the source give for `COc1ccc(S(=O)(=O)Nc2ccc(F)c(F)c2)cc1Cl` here?
**A.** inconclusive: 31.6 µM [inhibitor, partial curve, poor fit]

**Q.** Which Potency does the source give for `C/C=C\C(=O)Nc1cccc(C2=NOC3(C2)C[C@@H](C(N)=O)N(C(=O)c2ccc(Cl)cc2)C3)c1` (stereo partly drawn) here?
**A.** inconclusive: 50.1 µM [inhibitor, partial curve, poor fit]

**Q.** How did the Potency turn out when `Cc1cccnc1C(NC(=O)C1CCN(CCCc2ccccc2)CC1)c1ccc(F)cc1` (stereo not drawn) was run?
**A.** inconclusive: 126 µM [inhibitor, single point]

**Q.** How did the Potency turn out when `O=c1[nH]c(C2CCCN(Cc3ccc(-c4ccsc4)cc3)C2)nc2ccc(F)cc12` (stereo not drawn) was run?
**A.** inconclusive: 39.8 µM [inhibitor, partial curve, poor fit]

**Q.** `O=C(Oc1ccc2ccccc2c1)c1cc2ccccc2oc1=O` was tested. Which “activity change, negative = inhibition” value did it give?
**A.** inactive: 16.8%

**Q.** For `OC12CC3CC(C1)CC(NC/C=C/c1ccccc1)(C3)C2`, which “activity change, negative = inhibition” value is on record?
**A.** inactive: -21.2%

**Q.** How did the “activity change, negative = inhibition” value turn out when `CC(=O)c1c(C)nc2sc3c(=N)n(N)cnc3c2c1-c1ccc(Cl)cc1` was run?
**A.** inactive: 4.79%

**Q.** With `CN(Cc1ccc(-c2ccccc2)cc1)C(=O)Nc1ccc(Cl)cc1` as the compound, how does the Potency read?
**A.** inconclusive: 44.7 µM [inhibitor, partial curve]

**Q.** For `Cn1cccc1C(=O)N1CCC2(CC1)CCN(c1ncccn1)CC2`, which “activity change, negative = inhibition” value is on record?
**A.** inactive: -12.5% [at 57.4 µM]

**Q.** With `C=CC(=O)NC(=O)NCc1ccccc1` as the compound, how does the Potency read?
**A.** inconclusive: 0.112 µM [inhibitor, full curve, poor fit]

**Q.** Which Potency does the source give for `Cc1cc(OCC(=O)NC(Cc2c[nH]c3ccccc23)C(=O)O)ccc1Cl` (stereo not drawn) here?
**A.** inconclusive: 79.4 µM [inhibitor, partial curve, poor fit]

**Q.** Which “activity change, negative = inhibition” value does the source give for `CCN(CC)Cc1c(C(=O)N/N=C/c2ccc(OCc3ccccc3C)cc2)nnn1-c1nonc1N` here?
**A.** inactive: 3.96%

**Q.** With `COc1ccc(NC(=O)N2CCCC(Cc3nncn3C)C2)cc1` (stereo not drawn) as the compound, how does the Potency read?
**A.** inconclusive: 10 µM [inhibitor, full curve]

**Q.** How did the Potency turn out when `CCCCn1c(SCC(=O)c2ccc(Cl)cc2)nc2c1c(=O)[nH]c(=O)n2C` was run?
**A.** inconclusive: 39.8 µM [inhibitor, partial curve, poor fit]

**Q.** `COC(=O)C1=C(C)N=C2SC=C(CC(=O)N(C)Cc3ccco3)N2C1c1cccc(Cl)c1` (stereo not drawn) was tested. Which Potency did it give?
**A.** inconclusive: 15.8 µM [inhibitor, full curve, poor fit]

**Q.** `O=C(Nc1ccc2nc3n(c(=O)c2c1)CCCCC3)c1cc([N+](=O)[O-])ccc1F` was tested. Which “activity change, negative = inhibition” value did it give?
**A.** inactive: -6.76%

**Q.** For `CC1CCc2[nH]c3ccc(C(=O)N(C)CC(=O)Nc4ccccc4Br)cc3c2C1` (stereo not drawn), which Potency is on record?
**A.** inconclusive: 89.1 µM [inhibitor, partial curve, poor fit]

**Q.** How did the “activity change, negative = inhibition” value turn out when `Cc1sc2nnn(CC(=O)N3CCN(C(=O)c4ccco4)CC3)c(=O)c2c1C` was run?
**A.** inactive: -17.2%

**Q.** How did the Potency turn out when `Cc1ccc(Cl)cc1N1CCN(c2cccc[n+]2C)CC1` was run?
**A.** inconclusive: 20 µM [inhibitor, partial curve, poor fit]

**Q.** With `CCOc1ccc(S(=O)(=O)/N=C(/Nc2ccc(C(C)=O)cc2)c2ccccc2)cc1` as the compound, how does the Potency read?
**A.** inconclusive: 50.1 µM [inhibitor, partial curve, poor fit]

**Q.** `Cn1ncc(N2CCC(CNC(=O)c3cn(CCN)nn3)C2)cc1=O` (stereo not drawn) was tested. Which Potency did it give?
**A.** inconclusive: 15.8 µM [inhibitor, full curve, poor fit]

**Q.** For `Cc1c(NC(=O)CN(c2ccc(Cl)cc2)S(C)(=O)=O)c(=O)n(-c2ccccc2)n1C`, which “activity change, negative = inhibition” value is on record?
**A.** inactive: 54.4%

**Q.** For `CCNC(=S)N/N=C(\C)c1ccco1`, which “activity change, negative = inhibition” value is on record?
**A.** inactive: -26.8%

**Q.** `O=S(=O)(Nc1ccccc1Cl)c1cccc2nsnc12` was tested. Which Potency did it give?
**A.** inconclusive: 56.2 µM [inhibitor, partial curve, poor fit]

**Q.** With `Cc1ccc(-c2nnc(Nc3ccccc3)c3ccccc23)cc1S(=O)(=O)N1CCOCC1` as the compound, how does the “activity change, negative = inhibition” value read?
**A.** inactive: -3.05%

**Q.** For `CCOc1ccc2nc(N(Cc3cccnc3)C(=O)C3CCCCC3)sc2c1`, which “activity change, negative = inhibition” value is on record?
**A.** inactive: -3.33%

**Q.** How did the Potency turn out when `NC[C@@H]1O[C@H](c2ccccc2)Cc2c1ccc(O)c2O` was run?
**A.** inconclusive: 10 µM [inhibitor, partial curve, poor fit]

**Q.** How did the Potency turn out when `Cc1cc(Cn2cnc3c2C[C@@H](C(=O)O)N(C(=O)C(c2ccccc2)c2ccccc2)C3)ccc1N(C)C` was run?
**A.** inconclusive: 7.94 µM [inhibitor, full curve, poor fit]

**Q.** With `CCc1ccc2oc(=O)cc(CN3CCN(Cc4ccccc4)CC3)c2c1` as the compound, how does the Potency read?
**A.** inactive

**Q.** How did the “activity change, negative = inhibition” value turn out when `Cc1ccc(CN2CCCN(c3cccc(C(=O)N4CCCCCC4)c3)C2=O)cc1` was run?
**A.** inactive: -4.66%

**Q.** `N#Cc1cccc(NC(=O)CCc2ncc(-c3ccccc3Cl)o2)c1` was tested. Which activity change, negative = inhibition did it give?
**A.** inconclusive: -30.8% [inhibitor]

**Q.** With `CCOC(=O)c1cc2n(n1)CC(C)(C(=O)NCCC(C)C)N(CCc1cccs1)C2=O` (stereo not drawn) as the compound, how does the “activity change, negative = inhibition” value read?
**A.** inactive: -25.5%

**Q.** `Cc1ccc(CNC(=O)c2cc3cn(C(C)C)cc3s2)cc1` was tested. Which Potency did it give?
**A.** inconclusive: 15.8 µM [inhibitor, full curve]

**Q.** `CCN1CCCC1CNC(=O)c1cc2c(-c3cccc(OC)c3)nn(C)c2s1` (stereo not drawn) was tested. Which “activity change, negative = inhibition” value did it give?
**A.** inactive: 0%

**Q.** With `CCOC(=O)CCNC(C)C1COc2ccccc2O1` (stereo not drawn) as the compound, how does the Potency read?
**A.** inconclusive: 0.562 µM [inhibitor, full curve, poor fit]

**Q.** For `COc1ccc2[nH]c(C)c(CCNC(=S)Nc3cc(C)ccc3C)c2c1`, which Potency is on record?
**A.** inconclusive: 25.1 µM [inhibitor, partial curve, poor fit]

**Q.** How did the Potency turn out when `CC1CN(C2CCN(C(=O)COc3ccc(Cl)cc3)CC2)CC(C)O1` (stereo not drawn) was run?
**A.** inconclusive: 0.794 µM [inhibitor, full curve, poor fit]

**Q.** With `Cc1ccc(-c2nc(CS(=O)(=O)CC(=O)NCc3ccccc3C)c(C)o2)cc1` as the compound, how does the Potency read?
**A.** inconclusive: 12.6 µM [inhibitor, full curve, poor fit]

**Q.** Which Potency does the source give for `O=C(Nc1ncc([N+](=O)[O-])s1)c1ccccc1Br` here?
**A.** inconclusive: 35.5 µM [inhibitor, partial curve, poor fit]

**Q.** How did the Potency turn out when `Cc1ccc2c(nc3s/c(=C/c4cccs4)c(=O)n32)c1C` was run?
**A.** inconclusive: 14.1 µM [inhibitor, partial curve, poor fit]

**Q.** With `CC(=O)Nc1ccc(S(=O)(=O)Nc2ccc3nc(C)sc3c2)cc1` as the compound, how does the “activity change, negative = inhibition” value read?
**A.** inactive: -3.99%

**Q.** How did the “activity change, negative = inhibition” value turn out when `O=C(CN1CCCC1)Nc1ccccc1Sc1ccc(Cl)cc1` was run?
**A.** inactive: -14.1%

**Q.** How did the Potency turn out when `Clc1ccc(-c2csc(NC3CC3)n2)c(Cl)c1` was run?
**A.** inconclusive: 44.7 µM [inhibitor, partial curve, poor fit]

**Q.** For `CS(=O)(=O)c1ccc(N)c(SSc2cc(S(C)(=O)=O)ccc2N)c1`, which Potency is on record?
**A.** inconclusive: 0.282 µM [inhibitor, full curve, poor fit]

**Q.** Which Potency does the source give for `Cc1cc(S(=O)(=O)Nc2nc(CN3CCOCC3)nc3sc4c(c23)CCC4)ccc1F` here?
**A.** inconclusive: 79.4 µM [inhibitor, partial curve, poor fit]

**Q.** `O=C1CCCCCCC(=O)[C@H](O)C[C@H](c2ccccc2)O1` was tested. Which “activity change, negative = inhibition” value did it give?
**A.** inactive: 12.6%

**Q.** How did the Potency turn out when `CN(c1ccccc1)c1cc(Br)nc(Br)c1` was run?
**A.** inconclusive: 126 µM [inhibitor, single point]

**Q.** How did the Potency turn out when `S=C(NCCSc1ccc(Cl)cc1)Nc1ccccc1` was run?
**A.** inconclusive: 50.1 µM [inhibitor, partial curve, poor fit]

**Q.** Which Potency does the source give for `O=C(Cn1c(=O)c2c(ncn2C2CCCC2)n(Cc2ccccc2)c1=O)NCc1ccccc1Cl` here?
**A.** inconclusive: 112 µM [inhibitor, single point]

**Q.** With `O=C(NNc1nc(-c2ccc(Br)cc2)cs1)c1ccco1` as the compound, how does the “activity change, negative = inhibition” value read?
**A.** inactive: 5.27%

**Q.** For `CCOc1ccc(N/N=C(/C#N)C(N)=O)cc1`, which Potency is on record?
**A.** inconclusive: 2.24 µM [inhibitor, full curve, poor fit]

**Q.** How did the Potency turn out when `O=C(C=C(O)c1ccc(Cl)cc1)C(=O)NNC(=O)C(O)(c1ccccc1)c1ccccc1` was run?
**A.** active: 14.1 µM

**Q.** Which “activity change, negative = inhibition” value does the source give for `COc1ccc(OC)c(Nc2nc(N(C)c3ccccc3)nc(N)c2[N+](=O)[O-])c1` here?
**A.** inactive: 5.64%

**Q.** With `Cc1ccc(-n2c(=O)c3c(cnn3C)n(Cc3ccc(Cl)cc3)c2=O)cc1` as the compound, how does the “activity change, negative = inhibition” value read?
**A.** inactive: -3.2%

**Q.** How did the Potency turn out when `Cc1cccc(-c2nc3c(Br)c(N)c(Br)cc3o2)c1` was run?
**A.** inconclusive: 14.1 µM [inhibitor, full curve, poor fit]

**Q.** For `CCOC(=O)N1CCN(Cc2ccccc2F)CC1`, which Potency is on record?
**A.** inconclusive: 1 µM [inhibitor, full curve, poor fit]

**Q.** With `CCOC(=O)c1cc2n(n1)CC(C)(C(=O)NCCC(C)C)N(c1ccc(OC)cc1)C2=O` (stereo not drawn) as the compound, how does the Potency read?
**A.** inconclusive: 50.1 µM [inhibitor, partial curve, poor fit]

**Q.** How did the “activity change, negative = inhibition” value turn out when `CCc1ccc(NC(=O)N(Cc2c[nH]c3ccccc23)C2CCCCC2)cc1` was run?
**A.** inactive: -7.47%

**Q.** With `Cc1cc(NC(=O)c2ccc3c(c2)C(=O)N(CC(C)C)C3=O)no1` as the compound, how does the Potency read?
**A.** inconclusive: 100 µM [inhibitor, partial curve, poor fit]

**Q.** For `Cc1ccc(C)c(SC(C)C(N)=O)c1` (stereo not drawn), which Potency is on record?
**A.** inconclusive: 50.1 µM [inhibitor, partial curve, poor fit]

**Q.** How did the Potency turn out when `COc1cc2c(cc1OC)-c1cc3ccc4c(c3c[n+]1CC2)OCO4` was run?
**A.** inconclusive: 89.1 µM [inhibitor, partial curve, poor fit]

**Q.** For `Cc1cccnc1NC(=O)Cc1nc(-c2ccccc2)oc1C`, which Potency is on record?
**A.** inconclusive: 56.2 µM [inhibitor, single point]

**Q.** With `CCOc1ccccc1C1NC(=O)N(CC(=O)Nc2cccc(Cl)c2)C2=C1C(=O)OC2` (stereo not drawn) as the compound, how does the “activity change, negative = inhibition” value read?
**A.** inactive: 1.77%

**Q.** Which Potency does the source give for `COc1cc(C2Nc3cc(C)c(C)cc3NC3=C2C(=O)CC(C)(C)C3)ccc1O` (stereo not drawn) here?
**A.** inconclusive: 22.4 µM [inhibitor, single point]

**Q.** `Fc1ccc(CCNC(=S)NC2CCCC2)cc1` was tested. Which activity change, negative = inhibition did it give?
**A.** inconclusive: -33.2% [inhibitor]

**Q.** `N#Cc1ccccc1S(=O)(=O)N1CCN(Cc2cc3c(cc2Br)OCCO3)CC1` was tested. Which Potency did it give?
**A.** inconclusive: 44.7 µM [inhibitor, partial curve, poor fit]

**Q.** How did the Potency turn out when `COC(=O)C1C/C(=N\NS(=O)(=O)c2ccc(C)cc2)c2ccsc2C1` (stereo not drawn) was run?
**A.** inconclusive: 7.94 µM [inhibitor, full curve]
